Measurements from “University of Dundee, Small-Polar-MMV Screening Library” (2021), ChEMBL document CHEMBL3988442.

Protein sequences, listed by entry. Tags and fused reporters are not part of them. Residues count along the entry.
UniProt A4I591, 1-473: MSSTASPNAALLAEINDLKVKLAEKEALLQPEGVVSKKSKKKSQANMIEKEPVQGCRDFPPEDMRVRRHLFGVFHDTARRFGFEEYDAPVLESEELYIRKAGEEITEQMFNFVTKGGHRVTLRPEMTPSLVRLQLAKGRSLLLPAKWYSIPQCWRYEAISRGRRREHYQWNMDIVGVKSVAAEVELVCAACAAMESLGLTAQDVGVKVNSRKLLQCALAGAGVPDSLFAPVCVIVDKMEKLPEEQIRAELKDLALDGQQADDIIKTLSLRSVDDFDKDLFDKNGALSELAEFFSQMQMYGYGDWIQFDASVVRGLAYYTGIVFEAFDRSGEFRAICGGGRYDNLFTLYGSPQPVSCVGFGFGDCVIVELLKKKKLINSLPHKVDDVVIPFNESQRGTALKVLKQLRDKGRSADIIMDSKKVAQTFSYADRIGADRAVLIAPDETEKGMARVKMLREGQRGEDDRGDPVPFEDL
UniProt P9WNZ1, whole entry: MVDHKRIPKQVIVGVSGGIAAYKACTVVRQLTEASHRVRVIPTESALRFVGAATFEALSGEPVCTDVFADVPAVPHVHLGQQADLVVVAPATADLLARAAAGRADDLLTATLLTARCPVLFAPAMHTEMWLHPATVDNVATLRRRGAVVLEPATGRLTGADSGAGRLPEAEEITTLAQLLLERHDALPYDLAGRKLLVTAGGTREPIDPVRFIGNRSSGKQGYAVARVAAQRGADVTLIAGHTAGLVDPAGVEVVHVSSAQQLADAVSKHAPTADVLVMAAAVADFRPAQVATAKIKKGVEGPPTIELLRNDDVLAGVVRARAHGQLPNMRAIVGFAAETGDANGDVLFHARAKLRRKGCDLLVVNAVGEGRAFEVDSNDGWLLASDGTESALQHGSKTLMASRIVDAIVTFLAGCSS
UniProt P9WFT3, whole entry: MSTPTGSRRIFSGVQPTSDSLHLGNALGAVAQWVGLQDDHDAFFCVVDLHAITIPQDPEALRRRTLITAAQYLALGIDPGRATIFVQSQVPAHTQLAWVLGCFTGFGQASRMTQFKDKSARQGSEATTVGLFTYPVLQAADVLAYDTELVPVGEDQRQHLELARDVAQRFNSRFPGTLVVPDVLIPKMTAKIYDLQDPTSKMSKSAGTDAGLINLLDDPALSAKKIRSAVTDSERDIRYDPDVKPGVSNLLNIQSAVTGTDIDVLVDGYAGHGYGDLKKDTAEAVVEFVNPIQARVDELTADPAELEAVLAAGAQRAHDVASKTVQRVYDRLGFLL

A: 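Histidine-tRNA ligase, Leishmania infantum (UniProt A4I591). Enzyme assay of histidyl-tRNA synthetase; the read-out is not stated. Concentration: 30 µM. Higher reads as stronger inhibition (inferred: compounds with an IC50 in retests scored well above the rest). The assay is labelled LdHisRS but filed under L. infantum. About 69,000 compounds were tested under these conditions; 0.6% (about 410) showed 50% or more at least once.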
B: 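Enzyme assay of CoaBC with a phosphate dye (Biomol Green) read at 650 nm. Target: Coenzyme A biosynthesis protein CoaBC, Mycobacterium tuberculosis (UniProt P9WNZ1). Concentration: 30 µM. Higher reads as stronger inhibition, judged from the few compounds that gave an IC50. Most strong results did not repeat in a second test. Of about 67,000 compounds tested this way, about 40 (0.06%) reached 50% or more in at least one test.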
C: 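Enzyme assay of tryptophanyl-tRNA synthetase; the read-out is not stated. Target: Tryptophan-tRNA ligase, Mycobacterium tuberculosis (UniProt P9WFT3). Concentration: 10 µM. Higher most likely means stronger inhibition; the record gives no direction and few retests gave an IC50. Of about 65,000 compounds tested this way, about 64 (0.098%) reached 50% or more in at least one test.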

Each number is a percent effect as filed. The controls that fix the scale are not given in the record; negative values are as filed. This is an unselected part of the compounds tested. Two or more numbers in one place are separate tests of the same structure; such repeats can differ widely.

{"structure": "O=C(NCCCN1CCOCC1)c1ccn(COc2ccccc2)n1", "A": 6.897, "B": 12.24, "C": -1.295}
{"structure": "CCC(CC)n1nc(C)cc1NC(=O)CC1CCOCC1", "A": 13.7, "B": 12.73, "C": 0}
{"structure": "COCCn1c2c(ccc1=O)CCN(C(=O)NC1CC1)CC2", "A": 9.615, "B": 0.8485}
{"structure": "CCC(C)(C)NCc1nc(C(C)(C)NC(=O)OC(C)(C)C)no1", "A": 13.22, "B": -1.373, "C": -1.72}
{"structure": "O=C(CS(=O)(=O)CC1CCCCC1)NC1CCCCNC1=O", "stereo": "stereo unspecified", "A": 2.74, "B": 4.337, "C": 1.199}
{"structure": "CCOc1cccc(CNc2ccccc2OC)c1O", "A": 13.16, "B": 2.273, "C": 2.451}
{"structure": "Cn1cc(N2C(=O)CC[C@@H]3[C@H]2CCN3Cc2nccs2)cn1", "A": 9.722, "B": "6.701 & 51.66", "C": -3.635}
{"structure": "COc1cc(C(=O)NS(=O)(=O)c2cncc(Br)c2)cc(Cl)c1OC", "A": -2.041, "B": 0.9185, "C": -3.62}
{"structure": "Cc1ccc2nc(CN(C)Cc3[nH]nc4c3CCC4)[nH]c2c1C", "A": 15.71, "B": 5.123, "C": 0.5415}
{"structure": "CCn1ncc2c1CN(CCc1cccc(Cl)c1)CC2COC", "stereo": "stereo unspecified", "A": 13.86, "B": 4.579}
{"structure": "Cc1c(Cl)cccc1S(=O)(=O)NCc1cnc(N(C)C)n1C", "A": 13.39, "B": 6.746, "C": 3.177}
{"structure": "Cc1csc(CCNC(=O)c2cc3c(nc2O)CCC(C)C3)n1", "stereo": "stereo unspecified", "A": 13.33, "B": 1.071, "C": -3.82}
{"structure": "Cn1cc(C2CCCN2C(=O)Cc2n[nH]c3ccccc23)cn1", "stereo": "stereo unspecified", "A": -28.09, "B": 7.712, "C": 1.338}
{"structure": "c1ccc(C2CCCCN2Cc2nc(-c3cnccn3)no2)nc1", "stereo": "stereo unspecified", "A": 9.091, "B": 3.831, "C": -1.816}
{"structure": "COc1cc(C)cc(C(C(=O)O)N(C)Cc2ccon2)c1OC", "stereo": "stereo unspecified", "A": 3.125, "B": 10.63, "C": 0.1874}
{"structure": "CN1CCN(Cc2cccnc2)C2(CCN(Cc3ccccn3)C2)C1=O", "stereo": "stereo unspecified", "A": 31.51, "B": 2.447, "C": 2.651}
{"structure": "CN1CC(C(=O)NC2(c3ccc(Cl)cc3)CCOCC2)CC1=O", "stereo": "stereo unspecified", "A": 22.5, "B": -0.3797, "C": -2.983}
{"structure": "COCC1COCCC12CCN(Cc1cccs1)CC2", "stereo": "stereo unspecified", "A": 0, "B": 1.463}
{"structure": "COCCNc1ccc(CC2CCNC2)cn1", "stereo": "stereo unspecified", "A": 14.18, "B": -12.15, "C": -6.368}
{"structure": "Cc1c(-c2c(-c3ccccc3)ncn2[C@@H](C(=O)O)[C@H](C)O)cnn1C", "A": 5.759, "B": 10.87, "C": 13.58}
{"structure": "CCc1ccc(O)c(C(=O)NC2CCN(S(=O)(=O)CC)CC2)c1", "A": 12.77, "B": -0.2591, "C": 0.3712}
{"structure": "O=C(Cc1c[nH]c2ccccc12)N1CCN(C(=O)c2ccoc2)CC1", "A": 31.43, "B": 4.184, "C": 1.377}
{"structure": "CC(CO)(CO)NC(=O)C1CCC(=O)N(Cc2ccc(Cl)cc2)C1", "stereo": "stereo unspecified", "A": 16.05, "B": 3.571, "C": 3.31}
{"structure": "O=C(NC1CC1)C1=CC2(CCN(CC3CC3)CC2)c2ccccc21", "A": 9.615, "B": 3.732, "C": -3.924}
{"structure": "COCCN(Cc1ccc(C)cc1)CC1CCOC1", "stereo": "stereo unspecified", "A": 2.41, "B": 10.68, "C": -2.51}
{"structure": "O=C(O)c1cccn1-c1ccc2c(c1)OCCO2", "A": 24.49, "B": 6.446, "C": 1.762}
{"structure": "CCOC1CCCN(C(=O)c2[nH]nc(C3CC3)c2Br)C1", "stereo": "stereo unspecified", "A": 11.43, "B": 4.615, "C": 0.854}
{"structure": "CN(C)C(=O)Cn1c2c(ccc1=O)CC(NCc1ccoc1)CC2", "stereo": "stereo unspecified", "A": 15.52, "C": -4.423}
{"structure": "NC(=O)CN(CC1CCOC1)C1CC1", "stereo": "stereo unspecified", "A": 14.53, "B": 1.681, "C": 5.146}
{"structure": "Cc1ccsc1CN1CCc2c(nc(N3CCCCC3C)[nH]c2=O)C1", "stereo": "stereo unspecified", "A": -7.246, "B": 3.155}
{"structure": "COc1ccc(S(=O)(=O)NCCCc2ccc(N(C)C)cc2)cc1Cl", "A": 12.17, "B": 9.937, "C": -1.444}

For reference, 2 entries once more:

{"structure": "COc1ccc(S(=O)(=O)NCCCc2ccc(N(C)C)cc2)cc1Cl", "A": 12.17, "B": 9.937, "C": -1.444}
{"structure": "COCC1COCCC12CCN(Cc1cccs1)CC2", "stereo": "stereo unspecified", "A": 0, "B": 1.463}